Laboratory results taken from PubChem BioAssay AID1671190 (National Center for Advancing Translational Sciences (NCATS), 2021).
Hit rate of the full screen: of about 580,000 compounds, about 6,100 (1.1%) were called active. The shares of active, inactive and inconclusive entries below differ from those in the screen. Calls follow the shape of the dose curve; as a rule, active = well fitted inhibition curve with a large enough effect; inconclusive = small, poorly fitted or top-dose-only effect, or another doubt; inactive = no such curve, though single readings can be large or run the other way. A potency beside an inconclusive call is a rough fit, not a confirmed value.

Protein sequences, listed by entry. Tags and fused reporters are not part of them. Lines headed by an entry give the natural chain unless they say otherwise; changes in a name come on top.
UniProt P18054: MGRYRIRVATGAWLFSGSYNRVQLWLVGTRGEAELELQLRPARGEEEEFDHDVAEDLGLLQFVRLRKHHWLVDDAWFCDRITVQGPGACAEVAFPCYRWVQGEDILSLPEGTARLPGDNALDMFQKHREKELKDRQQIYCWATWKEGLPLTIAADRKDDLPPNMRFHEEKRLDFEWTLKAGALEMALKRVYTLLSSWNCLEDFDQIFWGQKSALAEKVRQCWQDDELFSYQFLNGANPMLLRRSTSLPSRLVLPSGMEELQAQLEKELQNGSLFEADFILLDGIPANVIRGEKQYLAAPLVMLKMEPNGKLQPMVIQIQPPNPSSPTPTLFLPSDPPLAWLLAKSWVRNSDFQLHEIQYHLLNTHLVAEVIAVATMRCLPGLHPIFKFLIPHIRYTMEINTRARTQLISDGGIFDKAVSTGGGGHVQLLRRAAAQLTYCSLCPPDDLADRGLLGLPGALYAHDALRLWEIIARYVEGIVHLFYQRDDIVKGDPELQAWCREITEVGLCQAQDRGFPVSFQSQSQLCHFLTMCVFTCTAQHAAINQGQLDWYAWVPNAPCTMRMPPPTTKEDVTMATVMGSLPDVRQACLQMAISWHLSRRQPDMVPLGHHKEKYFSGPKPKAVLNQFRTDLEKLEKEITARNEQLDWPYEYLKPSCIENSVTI

biological target: Polyunsaturated fatty acid lipoxygenase ALOX12 (Homo sapiens) (UniProt P18054); test: Primary qHTS assay for inhibitors of human arachidonate 12S-lipoxygenase (ALOX12): Round 2; conditions: purified 12hLO, xylenol orange hydroperoxide absorbance; series mostly up to 108 µM
Procedure, shortened: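 Hydroperoxide product was detected by ferrous iron/xylenol orange as the 573 to 405 nm absorbance ratio. Arachidonic acid at 40 uM (final) was turned over for 30 min at room temperature by 150 nM human 12hLO, pH 7.0 Hepes buffer, after 15 min compound preincubation.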
Potency is read from the fitted curve at half-maximal effect.

| SMILES | Potency |
| --- | --- |
| O=c1cc(-c2ccccc2)sc2nnc(-c3ccc(Cl)cc3)n12 | inactive |
| CN(C)S(=O)(=O)c1cccc(NC(=O)c2ccc(OCc3cn4ccccc4n3)cc2)c1 | inactive |
| Cc1ccccc1-c1cn(C)c(=O)n2cc(CNc3ccccc3)nc12 | inconclusive: 8.91 µM [inhibitor, full curve, poor fit] |
| CCCC(c1nnnn1Cc1cccs1)N1CCN(c2ccc(OC)cc2)CC1 (stereo not drawn) | inconclusive: 112 µM [inhibitor, single point] |
| O=C(Nc1cccc(F)c1)/C(=C/c1ccco1)NC(=O)c1ccco1 | inconclusive: 39.8 µM [inhibitor, partial curve, poor fit] |
| COc1ccc(-c2nc(Cn3nnc(C(=O)NCc4ccc(Cl)cc4)c3N)c(C)o2)c(OC)c1 | inconclusive: 44.7 µM [inhibitor, partial curve, poor fit] |
| CCN1CCN(C(=O)c2cc(NC(=O)COC)cc3nc(-c4ccncc4)n(C)c23)CC1 | inconclusive: 89.1 µM [inhibitor, single point] |
| Fc1cc(Br)ccc1CSc1nc2ncccc2o1 | inconclusive: 44.7 µM [inhibitor, partial curve, poor fit] |
| COc1cc(-c2noc(-c3cccc(Cl)c3)n2)cc(OC)c1OC | inactive |
| COc1cc(CN2CCC(C)(NC(C)=O)CC2)cc(-c2ccccc2)c1 | inconclusive: 8.91 µM [inhibitor, full curve] |
| Cc1nc(N2N=C3/C(=C/c4ccc(F)cc4)CCCC3C2c2ccc(F)cc2)sc1C(=O)N(C)C (stereo not drawn) | inconclusive: 50.1 µM [inhibitor, partial curve, poor fit] |
| CNC(=O)Cn1ccc2cc(S(=O)(=O)N3CCCCC3)ccc21 | inconclusive: 44.7 µM [inhibitor, partial curve, poor fit] |
| C=C(c1ccc2cc(OC)ccc2c1)[C@H](C#N)C1CCCC1 | inconclusive: 141 µM [inhibitor, partial curve, poor fit] |
| O=S(=O)(c1ccc(Cl)cc1)c1cnc2ccccc2n1 | inactive |
| C[C@@H]1CC=C[C@H]2[C@H]1C(=O)N(Cc1ccccc1)[C@H]2c1ccc(-c2ccoc2)cc1F | inconclusive: 35.5 µM [inhibitor, partial curve, poor fit] |
| CC[C@@]1(C(=O)O)C[C@H](C(=O)N(C)CCN(C)C)[C@H](c2ccc(OC)cc2)N1C | inactive |
| COC(=O)CC(NC(=O)c1cc(C)nc2c1cnn2C(C)C)c1ccccc1Cl (stereo not drawn) | inconclusive: 39.8 µM [inhibitor, partial curve, poor fit] |
| NC(=O)c1sc2nc(-c3cccnc3)ccc2c1N | inconclusive: 100 µM [inhibitor, single point] |
| O=C(CSc1nc2cc([N+](=O)[O-])ccc2n1-c1ccc(F)cc1)NC1CCS(=O)(=O)C1 (stereo not drawn) | inactive |
| O=C(/C=C/c1ccco1)NC(=S)Nc1cccc(C(=O)O)c1 | inconclusive: 20 µM [inhibitor, partial curve] |
| CCOC(=O)N1CCc2c(sc3c2c(=O)n(-c2ccc(Cl)cc2)c(=O)n3CC(=O)Nc2ccccc2)C1 | inconclusive: 56.2 µM [inhibitor, partial curve, poor fit] |
| O=C(Cn1ccc2cc(Cl)ccc21)Nc1ccc2c(c1)OCO2 | inactive |

| SMILES | Potency |
| --- | --- |
| COc1ccc(Cl)cc1C(=O)NC(=S)Nc1cc(-c2nc3ccccc3[nH]2)ccc1C | inconclusive: 39.8 µM [inhibitor, partial curve, poor fit] |
| Fc1cccc(/C=N/n2c(C3CCCCC3)n[nH]c2=S)c1 | inconclusive: 50.1 µM [inhibitor, partial curve, poor fit] |
| Cc1cccc(C(=O)NN2C(=O)C3C(c4ccccc4)C=CC(c4ccccc4)C3C2=O)c1 (stereo not drawn) | inactive |
| N#CC1=C(S)N(c2ccccc2)C(c2ccc(-c3ccc(Cl)c(Cl)c3)o2)NC1=O (stereo not drawn) | active: 17.8 µM |
| COc1ccc(CCN2CC3=C(C2=O)C(c2ccccc2)NC(=O)N3C)cc1OC (stereo not drawn) | inconclusive: 44.7 µM [inhibitor, partial curve, poor fit] |
| O=C(NCCc1c[nH]c2ccccc12)c1ccccc1C1CCNC1 (stereo not drawn) | inconclusive: 8.91 µM [inhibitor, full curve] |
| CCCCc1nc2sc3c(SCCN(C)C)ncnc3c2c2c1CCC2 | inactive |
| COc1ccc(-c2cc(C#N)nc(Cl)n2)cc1 | active: 4.47 µM |
| CCOC(=O)c1c2c3c(cccc3[nH]c1=O)C(=O)c1ccccc1-2 | inconclusive: 14.1 µM [inhibitor, partial curve, poor fit] |
| CC1(C)C(=O)NC(=O)N1CC(=O)N1CCCC(CCc2c(F)cccc2F)C1 (stereo not drawn) | inconclusive: 8.91 µM [inhibitor, full curve, poor fit] |
| CC(C)CCNC(=O)c1ccc(CN2C(=O)NC3(CCS(=O)(=O)CC3)C2=O)cc1 | inconclusive: 56.2 µM [inhibitor, partial curve, poor fit] |
| COCc1nc(NCCCc2c(C)noc2C)cc(C2CC(N)C2)n1 (stereo not drawn) | inactive |
| CC1CCCCN1C(=O)COc1ccc(S(=O)(=O)N2CCCC2)cc1[N+](=O)[O-] (stereo not drawn) | inactive |
| CCOC(=O)N1CCN(Cc2c(F)cccc2Cl)CC1 | inconclusive: 0.631 µM [inhibitor, full curve, poor fit] |
| CN(C(=O)c1ccco1)c1nc(-c2ccccc2)cs1 | inactive |
| O[C@@H]1C[C@@H](c2nc(-c3ccccc3)no2)N(Cc2ccccc2)C1 | inconclusive: 35.5 µM [inhibitor, full curve, poor fit] |
| CC[C@H]1CN(S(=O)(=O)c2ccccc2)CC[C@H]1CC(=O)NCc1cccnc1 | inactive |
| O=c1oc2cc(O)c(Cl)cc2c2ccccc12 | inactive |
| CC(=O)Nc1ccc(-c2csc(NCc3ccccc3)n2)cc1 | inconclusive: 100 µM [inhibitor, single point] |
| Cc1nc(NC(=O)COc2cccc3ccccc23)sc1C | inconclusive: 56.2 µM [inhibitor, partial curve, poor fit] |
| COc1ccc(S(=O)(=O)N2CC[C@@H](CC(=O)O)[C@@H](CC3=NCCc4cc(OC)c(OC)cc43)C2)cc1 | inconclusive: 50.1 µM [inhibitor, partial curve, poor fit] |

Copied from the list.
`CCCCc1nc2sc3c(SCCN(C)C)ncnc3c2c2c1CCC2` | Potency: inactive
`NC(=O)c1sc2nc(-c3cccnc3)ccc2c1N` | Potency: inconclusive: 100 µM [inhibitor, single point]
`N#CC1=C(S)N(c2ccccc2)C(c2ccc(-c3ccc(Cl)c(Cl)c3)o2)NC1=O` (stereo not drawn) | Potency: active: 17.8 µM
